Results are given in words; binding and its absence hold for the method and conditions named. Some entries that bind do so weakly or less than the wild type.
What was measured:
[1] = biological target: MIEF1 (endogenous, HdhQ111 cells) (mouse) (UniProt Q8BGV8); assay: IP after DSP crosslinking
[2] = biological target: T1, Mff (endogenous, HdhQ111 cells) (mouse) (UniProt Q6PCP5); assay: IP after DSP crosslinking
T1 sequence (looked up): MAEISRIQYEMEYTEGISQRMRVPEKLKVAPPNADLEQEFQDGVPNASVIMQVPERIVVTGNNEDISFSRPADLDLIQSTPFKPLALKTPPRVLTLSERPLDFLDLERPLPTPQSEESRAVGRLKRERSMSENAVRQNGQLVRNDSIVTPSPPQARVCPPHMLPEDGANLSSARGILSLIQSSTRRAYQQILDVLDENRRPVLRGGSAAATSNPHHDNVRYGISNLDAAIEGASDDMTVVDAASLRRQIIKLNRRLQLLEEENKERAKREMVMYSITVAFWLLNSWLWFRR

Protein sequences, listed by entry. Tags and fused reporters are not part of them. Lines headed by an entry give the natural chain unless they say otherwise; changes in a name come on top. Chains listed by the source or under a name are the forms on record and can include a tag or linker. Residues count along the entry.
UniProt Q8BGV8: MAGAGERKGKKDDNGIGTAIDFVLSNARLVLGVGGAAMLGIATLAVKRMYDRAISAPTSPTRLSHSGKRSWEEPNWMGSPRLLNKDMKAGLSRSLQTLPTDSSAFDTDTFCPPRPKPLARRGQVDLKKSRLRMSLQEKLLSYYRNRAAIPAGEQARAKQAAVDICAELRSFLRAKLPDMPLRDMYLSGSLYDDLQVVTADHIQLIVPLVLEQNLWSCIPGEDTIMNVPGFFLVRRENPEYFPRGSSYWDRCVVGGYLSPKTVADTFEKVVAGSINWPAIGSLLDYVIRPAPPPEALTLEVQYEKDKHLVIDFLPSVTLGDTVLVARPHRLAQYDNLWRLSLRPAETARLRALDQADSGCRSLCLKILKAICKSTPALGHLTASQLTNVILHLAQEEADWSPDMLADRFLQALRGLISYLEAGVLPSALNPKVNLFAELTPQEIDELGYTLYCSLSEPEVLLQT
UniProt Q925I1, residues 2-591: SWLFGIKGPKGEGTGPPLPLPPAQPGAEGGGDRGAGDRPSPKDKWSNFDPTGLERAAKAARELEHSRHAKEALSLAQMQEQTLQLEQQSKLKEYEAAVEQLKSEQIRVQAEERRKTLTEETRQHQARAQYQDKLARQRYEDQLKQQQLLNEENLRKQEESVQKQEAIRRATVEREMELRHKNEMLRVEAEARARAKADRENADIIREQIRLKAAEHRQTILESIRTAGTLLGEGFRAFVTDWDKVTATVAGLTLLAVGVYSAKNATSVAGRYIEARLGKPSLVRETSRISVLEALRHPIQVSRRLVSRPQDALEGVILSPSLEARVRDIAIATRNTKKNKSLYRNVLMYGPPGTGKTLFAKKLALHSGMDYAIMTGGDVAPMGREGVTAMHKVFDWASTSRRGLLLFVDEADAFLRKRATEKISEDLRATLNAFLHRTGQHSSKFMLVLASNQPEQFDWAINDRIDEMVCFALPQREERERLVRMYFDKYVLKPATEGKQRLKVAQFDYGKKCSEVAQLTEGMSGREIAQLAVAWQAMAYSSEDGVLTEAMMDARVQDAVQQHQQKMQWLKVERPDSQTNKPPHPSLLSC
UniProt Q9NVI7: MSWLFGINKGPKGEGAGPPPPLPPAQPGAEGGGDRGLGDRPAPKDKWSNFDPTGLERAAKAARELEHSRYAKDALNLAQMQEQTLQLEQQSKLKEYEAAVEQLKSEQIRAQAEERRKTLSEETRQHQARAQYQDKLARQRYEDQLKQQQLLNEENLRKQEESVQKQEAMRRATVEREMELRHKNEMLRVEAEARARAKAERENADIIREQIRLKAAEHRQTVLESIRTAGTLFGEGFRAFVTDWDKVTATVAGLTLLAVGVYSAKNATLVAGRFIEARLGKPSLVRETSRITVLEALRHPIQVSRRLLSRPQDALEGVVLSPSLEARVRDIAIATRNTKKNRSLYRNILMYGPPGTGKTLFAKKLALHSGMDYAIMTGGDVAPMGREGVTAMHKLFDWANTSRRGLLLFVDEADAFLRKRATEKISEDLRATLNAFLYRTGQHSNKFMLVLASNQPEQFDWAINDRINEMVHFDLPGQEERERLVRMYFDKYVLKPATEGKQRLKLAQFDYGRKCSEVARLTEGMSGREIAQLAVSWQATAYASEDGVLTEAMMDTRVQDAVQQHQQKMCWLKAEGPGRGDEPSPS
UniProt Q8K1M6: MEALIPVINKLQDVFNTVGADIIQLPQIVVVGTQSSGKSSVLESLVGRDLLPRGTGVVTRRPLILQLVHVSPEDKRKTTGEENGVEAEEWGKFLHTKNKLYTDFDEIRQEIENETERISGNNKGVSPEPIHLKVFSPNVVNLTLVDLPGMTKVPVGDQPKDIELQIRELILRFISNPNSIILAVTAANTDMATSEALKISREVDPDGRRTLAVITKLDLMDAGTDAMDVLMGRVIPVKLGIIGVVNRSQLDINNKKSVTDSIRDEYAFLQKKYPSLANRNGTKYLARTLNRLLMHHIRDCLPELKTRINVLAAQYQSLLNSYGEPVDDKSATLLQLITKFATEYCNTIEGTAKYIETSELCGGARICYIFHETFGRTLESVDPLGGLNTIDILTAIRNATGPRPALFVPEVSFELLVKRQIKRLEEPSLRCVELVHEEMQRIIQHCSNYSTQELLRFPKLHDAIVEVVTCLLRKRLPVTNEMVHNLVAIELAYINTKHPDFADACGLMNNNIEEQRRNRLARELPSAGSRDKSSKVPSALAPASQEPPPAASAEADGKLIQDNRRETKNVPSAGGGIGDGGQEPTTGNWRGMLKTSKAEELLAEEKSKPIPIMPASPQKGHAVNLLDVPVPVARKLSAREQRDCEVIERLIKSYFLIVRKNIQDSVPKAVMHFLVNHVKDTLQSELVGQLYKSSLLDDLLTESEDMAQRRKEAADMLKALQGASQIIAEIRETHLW
GST-Drp1 recombinant protein (O00429, form named): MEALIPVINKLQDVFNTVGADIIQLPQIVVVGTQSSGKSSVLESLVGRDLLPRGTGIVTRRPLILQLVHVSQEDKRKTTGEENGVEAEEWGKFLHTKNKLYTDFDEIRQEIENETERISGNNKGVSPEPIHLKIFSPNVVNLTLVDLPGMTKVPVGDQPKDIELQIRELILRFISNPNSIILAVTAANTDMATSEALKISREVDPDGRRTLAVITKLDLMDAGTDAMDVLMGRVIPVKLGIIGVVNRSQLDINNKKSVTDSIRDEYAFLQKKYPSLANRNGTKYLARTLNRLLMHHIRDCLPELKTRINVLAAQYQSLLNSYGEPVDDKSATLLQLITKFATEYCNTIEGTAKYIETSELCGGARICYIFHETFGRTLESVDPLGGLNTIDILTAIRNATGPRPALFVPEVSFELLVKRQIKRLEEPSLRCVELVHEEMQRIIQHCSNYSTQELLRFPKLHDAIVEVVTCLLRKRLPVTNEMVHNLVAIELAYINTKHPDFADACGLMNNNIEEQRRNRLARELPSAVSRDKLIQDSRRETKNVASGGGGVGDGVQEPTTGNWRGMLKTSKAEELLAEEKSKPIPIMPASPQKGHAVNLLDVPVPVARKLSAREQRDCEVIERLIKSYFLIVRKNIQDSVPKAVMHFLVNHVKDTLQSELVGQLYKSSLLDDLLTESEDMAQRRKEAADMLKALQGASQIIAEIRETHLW

[3] = biological target: T2, Fis1 (endogenous, HdhQ111 cells) (mouse) (UniProt Q9CQ92); assay: IP after 1% FA crosslinking
T2 sequence (looked up): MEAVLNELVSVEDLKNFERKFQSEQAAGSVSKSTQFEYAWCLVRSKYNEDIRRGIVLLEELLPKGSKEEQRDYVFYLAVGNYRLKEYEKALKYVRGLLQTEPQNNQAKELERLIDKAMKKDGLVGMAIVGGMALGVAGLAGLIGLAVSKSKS

[4] = biological target: ATAD3A (endogenous, mouse cells and mouse striatum) (mouse) (UniProt Q925I1); assay: immunoprecipitation of total lysates
[5] = biological target: ATAD3A (endogenous, mouse cells and mouse striatum) (mouse) (UniProt Q925I1); assay: immunoprecipitation, wildtype mouse striatal cells exposed to 3-NP
[6] = biological target: ATAD3A-Flag protein (human ATAD3A wildtype, Flag-tagged) (human) (UniProt Q9NVI7); assay: summary of the in vitro binding and IP data
[7] = biological target: ATAD3A-Flag protein (human ATAD3A wildtype, Flag-tagged) (human) (UniProt Q9NVI7); assay: in vitro binding of purified proteins (2 µg each), anti-Flag IP and GST pull-down

Measured: binding

Drp1 (endogenous, mouse striatal cells and mouse striatum) (from UniProt Q8K1M6 1-736) (enzyme)
not listed: [6] | [7]
binds: all other assays above

GST-Drp1 recombinant protein (from UniProt O00429 1-710)
binds: [6] | [7]

— patent publication US20210322524A1
